From PMC10977697 (PLOS ONE, 2024)

Test: peptide made by a vendor
Conditions: whole synthesis, 214 nm, TFA Salt
With “Gly-Cys-Asp-Gln-Gly-His-Ser-Ser-Gly-Trp-Gln-Lys-Cys-Lys-Gln- Asp-Ser-Asp-Cys-Leu-Ala-Gly-Cys-Val-Cys-Trp-Phe-Arg-Trp-His- Cys-Gly” the “final HPLC purity” value was 96.30%.

Same assay, conditions: whole synthesis, 214 nm, TFA Salt, several disulfide bridges, sequence written open
With GCMPRYGGWHCKQDSDCLAGCVCGPNGFCG the “final HPLC purity” value was 96.56%. In the case of GCGQQRWGGWPLCKQDSDCLAGCVCGPNGFCG, the “final HPLC purity” value is reported as 95.75%. In the case of GCRPRWGGWHCKQDSDCLAGCVCGPNGFCG, the “final HPLC purity” value is reported as 98.25%. For GCQQRRWGGWQQCKQDSDCLAGCVCGPNGFCG, the “final HPLC purity” value was 93.20%. In the case of GCEQSTWWAPCKQDSDCLAGCVCYQRWHCG, the “final HPLC purity” value is reported as 95.70%. For GCGQTTAWEPCKQDSDCLAGCVCFMRWHCG, the “final HPLC purity” value was 95.26%. In the case of AFDCLGQCGRCDFHKLQCVMVYFIHMTKPYCNSSCTR, the “final HPLC purity” value is reported as 95.80%. With ACKGVFDACTVFEVTDTGVLECCPNAVCSDKHKWCKWKL the “final HPLC purity” value was 95.54%.

Same assay, conditions: whole synthesis, 214 nm, TFA salt, several disulfide bridges, sequence written open
With GCQQRRWGGWQQCKQDSDCLAGCVCGPNGFCG the “final HPLC purity” value was 94.15%.

Where a sequence shows no end group, the ends are not given.
